Not every detail of the peptide structures is certain; ends, links or a residue may be inferred. Residues, ends and D or L forms follow the SMILES beside them.
How the values were obtained:
[1] = test system: human hair follicle dermal papilla cells; assay: Hair follicle cell proliferation (SRB staining, absorbance at 560 nm); assay type: cell-based; conditions: for proliferation effect on hair follicle cells: HHFDPC treated with peptides at different concentrations (FIG. 5)
β-catenin = assay: Nuclear beta-catenin western blot (promotion of the proliferation mechanism of hair follicle cells); assay type: cell-based, human; conditions: for translocation of β-catenin from the cytoplasm to the nucleus: HHFDPC treated with peptides at various concentrations (FIG. 6)
DKK-1 = assay: Western blot of DHT-induced expression of hair loss-related factor DKK-1; assay type: cell-based, human; conditions: HHFDPC treated with peptides at different concentrations (FIG. 7)

Row | SMILES | proliferation effect on hair follicle cells [1] | translocation of β-catenin from the cytoplasm to the nucleus (β-catenin) | inhibiting effect on DKK-1 expression (DKK-1) | hair follicle cell proliferation promotion activity compared with the known peptide ([1]; HHFDPC, same concentration, versus SEQ ID NO: 10 (FIG. 5)) | proliferation mechanism promoting activity compared with the known peptide (β-catenin; HHFDPC, same concentration, versus SEQ ID NO: 10 (FIG. 6)) | expression of β-catenin (β-catenin; human hair follicle dermal papilla cells, peptide 10 µM, 50 µM or 100 µM, 24 hours (FIG. 2))
1 | CC(C)C[C@H](NC(=O)[C@H](CCC(=O)O)NC(=O)[C@H](CCCNC(=N)N)NC(=O)[C@H](CCCNC(=N)N)NC(=O)[C@H](CCCNC(=N)N)NC(=O)[C@H](CCC(=O)O)NC(=O)[C@H](C)N)C(=O)N[C@@H](CS)C(=O)N[C@@H](CCCNC(=N)N)C(=O)N[C@@H](CS)C(=O)O [SEQ ID NO: 10, AERRRELCRC, reference compound] (H-AERRRELCRC-OH) | exhibit a proliferation effect on hair follicle cells in a concentration-dependent manner | promote the translocation of β-catenin from the cytoplasm to the nucleus in a concentration-dependent manner | exhibit an inhibiting effect on DKK-1 expression in a concentration-dependent manner |  |  | 
2 | C[C@H](N)C(=O)N[C@@H](CCC(=O)O)C(=O)N[C@@H](CCCNC(=N)N)C(=O)N[C@@H](CCCNC(=N)N)C(=O)N[C@@H](CCCNC(=N)N)C(=O)N[C@@H](CCC(=O)O)C(=O)N[C@@H](CCCCN)C(=O)N[C@@H](CS)C(=O)N[C@@H](CCCNC(=N)N)C(=O)N[C@@H](CS)C(=O)O [SEQ ID NO: 1, AERRREKCRC] (H-AERRREKCRC-OH) | exhibit a proliferation effect on hair follicle cells in a concentration-dependent manner | promote the translocation of β-catenin from the cytoplasm to the nucleus in a concentration-dependent manner | exhibit an inhibiting effect on DKK-1 expression in a concentration-dependent manner | significantly higher hair follicle cell proliferation promotion activity than the known peptide | significantly higher proliferation mechanism promoting activity than the known peptide | increases
